In PMC3547847:
No constants are given. Whether binding was seen depends on the method and setting. In cells and extracts the contact can be indirect. Here binding means that the protein was enriched with, or labelled near, the bait; the list need not be complete. For part of these data: Sequences can lack the tags named with a protein. Values belong to the binder of their own block, whether it stands above or below them.

Sequences of proteins named here, by UniProt entry; tags and fusion partners are left off.
UniProt Q9H867: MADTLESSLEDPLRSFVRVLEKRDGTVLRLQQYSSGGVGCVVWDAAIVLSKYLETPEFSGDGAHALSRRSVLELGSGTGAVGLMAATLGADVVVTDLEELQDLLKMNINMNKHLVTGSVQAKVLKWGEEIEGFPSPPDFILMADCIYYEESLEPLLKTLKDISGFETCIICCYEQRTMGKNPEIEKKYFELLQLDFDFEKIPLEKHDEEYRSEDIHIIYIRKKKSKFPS

How the values were obtained:
[1] = target: METTL21D (TAP-tagged) (human) (UniProt Q9H867); assay: affinity purification with mass spectrometry; tandem affinity purification of C-terminally TAP-tagged methyltransferases from whole cell extracts of ponasterone A-induced EcR-293 cells; eluates on SDS-PAGE, silver stain, gel slices, LC-MS/MS; interactions scored with Decontaminator (FDR below 10%)
[2] = target: T1, Kin17/KIN (bait of an affinity purification) (human) (UniProt O60870); assay: affinity purification with mass spectrometry; protein affinity purification that targeted Kin17/KIN, soluble fraction; no further detail told
T1 sequence: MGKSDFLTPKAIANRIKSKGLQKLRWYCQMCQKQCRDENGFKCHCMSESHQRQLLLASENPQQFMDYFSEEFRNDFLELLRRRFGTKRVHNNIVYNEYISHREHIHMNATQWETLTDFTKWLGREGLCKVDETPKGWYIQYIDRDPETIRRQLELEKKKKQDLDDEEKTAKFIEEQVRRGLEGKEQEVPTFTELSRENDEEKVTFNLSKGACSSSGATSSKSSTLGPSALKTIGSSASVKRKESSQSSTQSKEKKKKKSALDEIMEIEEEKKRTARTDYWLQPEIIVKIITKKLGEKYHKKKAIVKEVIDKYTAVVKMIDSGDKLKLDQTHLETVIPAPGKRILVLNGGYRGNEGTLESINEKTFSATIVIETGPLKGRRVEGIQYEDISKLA

[3] = target: T2, METTL22 (TAP-tagged) (human) (UniProt Q9BUU2); assay: affinity purification with mass spectrometry; tandem affinity purification of C-terminally TAP-tagged methyltransferases from whole cell extracts of ponasterone A-induced EcR-293 cells; eluates on SDS-PAGE, silver stain, gel slices, LC-MS/MS; interactions scored with Decontaminator (FDR below 10%)
T2 sequence: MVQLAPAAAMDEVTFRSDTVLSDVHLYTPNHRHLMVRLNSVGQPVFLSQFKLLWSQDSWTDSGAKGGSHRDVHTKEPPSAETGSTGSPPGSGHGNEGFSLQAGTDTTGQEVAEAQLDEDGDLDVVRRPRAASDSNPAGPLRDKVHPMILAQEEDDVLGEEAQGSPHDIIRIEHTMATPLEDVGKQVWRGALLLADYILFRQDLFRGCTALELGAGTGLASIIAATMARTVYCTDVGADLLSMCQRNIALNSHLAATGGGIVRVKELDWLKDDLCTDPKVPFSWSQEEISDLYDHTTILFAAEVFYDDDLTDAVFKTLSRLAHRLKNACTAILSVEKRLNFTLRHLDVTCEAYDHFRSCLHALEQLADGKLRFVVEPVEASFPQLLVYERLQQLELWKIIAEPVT

binding [1]: binds
B1: UBXN6/UBXD1 (endogenous, prey) (protein, UniProt Q9BZV1 1-441)
chain: MKKFFQEFKADIKFKSAGPGQKLKESVGEKAHKEKPNQPAPRPPRQGPTNEAQMAAAAALARLEQKQSRAWGPTSQDTIRNQVRKELQAEATVSGSPEAPGTNVVSEPREEGSAHLAVPGVYFTCPLTGATLRKDQRDACIKEAILLHFSTDPVAASIMKIYTFNKDQDRVKLGVDTIAKYLDNIHLHPEEEKYRKIKLQNKVFQERINCLEGTHEFFEAIGFQKVLLPAQDQEDPEEFYVLSETTLAQPQSLERHKEQLLAAEPVRAKLDRQRRVFQPSPLASQFELPGDFFNLTAEEIKREQRLRSEAVERLSVLRTKAMREKEEQRGLRKYNYTLLRVRLPDGCLLQGTFYARERLGAVYGFVREALQSDWLPFELLASGGQKLSEDENLALNECGLVPSALLTFSWDMAVLEDIKAAGAEPDSILKPELLSAIEKLL

binding [2]: binds
B2: METTL22 (prey in the KIN purification) (enzyme, UniProt Q9BUU2 1-404)
chain: MVQLAPAAAMDEVTFRSDTVLSDVHLYTPNHRHLMVRLNSVGQPVFLSQFKLLWSQDSWTDSGAKGGSHRDVHTKEPPSAETGSTGSPPGSGHGNEGFSLQAGTDTTGQEVAEAQLDEDGDLDVVRRPRAASDSNPAGPLRDKVHPMILAQEEDDVLGEEAQGSPHDIIRIEHTMATPLEDVGKQVWRGALLLADYILFRQDLFRGCTALELGAGTGLASIIAATMARTVYCTDVGADLLSMCQRNIALNSHLAATGGGIVRVKELDWLKDDLCTDPKVPFSWSQEEISDLYDHTTILFAAEVFYDDDLTDAVFKTLSRLAHRLKNACTAILSVEKRLNFTLRHLDVTCEAYDHFRSCLHALEQLADGKLRFVVEPVEASFPQLLVYERLQQLELWKIIAEPVT

binding [3]: binds
B3: KIN (endogenous, prey) (protein, UniProt O60870 1-393)
chain: MGKSDFLTPKAIANRIKSKGLQKLRWYCQMCQKQCRDENGFKCHCMSESHQRQLLLASENPQQFMDYFSEEFRNDFLELLRRRFGTKRVHNNIVYNEYISHREHIHMNATQWETLTDFTKWLGREGLCKVDETPKGWYIQYIDRDPETIRRQLELEKKKKQDLDDEEKTAKFIEEQVRRGLEGKEQEVPTFTELSRENDEEKVTFNLSKGACSSSGATSSKSSTLGPSALKTIGSSASVKRKESSQSSTQSKEKKKKKSALDEIMEIEEEKKRTARTDYWLQPEIIVKIITKKLGEKYHKKKAIVKEVIDKYTAVVKMIDSGDKLKLDQTHLETVIPAPGKRILVLNGGYRGNEGTLESINEKTFSATIVIETGPLKGRRVEGIQYEDISKLA
modifications: trimethylated lysine at position 135 (detected in the METTL22 purification)
